Measurements from PubChem BioAssay AID1347076 (National Center for Advancing Translational Sciences (NCATS), 2019).
Among all 400,000 compounds or so, about 13,000 (3.2%) were called active. The shares of active, inactive and inconclusive entries below differ from those in the screen. Calls come from the whole dose curve; as a rule, active = well fitted cell-killing curve with a large enough effect; inconclusive = small, poorly fitted or top-dose-only effect, or effect the other way; inactive = flat fitted curve, though single readings scatter. Where the call is inconclusive, the potency comes from a doubtful curve fit.

assay: qHTS assay for MDR1-selective chemotherapeutics: Primary screen using the drug-selected MDR subline cells KB-V1; conditions: KB-V1 MDR cells viability, CellTiter-Glo, 72 h; activity change, negative = cytotoxicity: at 46.1 µM (top of the series); note: nearly all actives have a fitted effect of over 60% in size
Outline: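 qHTS viability screen in drug-selected KB-V1 MDR cells: 72 h compound treatment at 37 degrees C, ATP luminescence end point.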
% is set by controls: 0 for no effect and ±100 for the full control effect; potency is the fitted concentration of half-maximal effect.

Row | Compound | Potency | activity change, negative = cytotoxicity
1 | CCOc1ccccc1N(CC)C(=O)c1noc2c1COc1ccc(C)cc1-2 | inconclusive: 23.1 µM [cytotoxic, single point] | –
2 | CCOCCCNC(=O)C(c1ccc(Cl)cc1)N(Cc1cccs1)C(=O)c1ccc(NC(C)=O)cc1 (configuration not stated) | – | inactive: 9.57%
3 | Cc1cc(C)n(-c2nc(NCCN(C)C)c3c4c(sc3n2)COC(C)(C)C4)n1 | – | inactive: -1.74%
4 | CCOc1ccccc1OCC(=O)Nc1nc2ccccc2[nH]1 | inconclusive: 11.6 µM [cytotoxic, partial curve, poor fit] | –
5 | O=C(Nc1cccnc1)C1(c2ccc(Cl)cc2)CCCC1 | inconclusive: 8.2 µM [cytotoxic, partial curve, poor fit] | –
6 | CN(C)c1ccc(C(CNC(=O)c2c(F)cccc2Cl)N2CCOCC2)cc1 (configuration not stated) | – | inactive: 0.0505%
7 | O=C(Nc1ccc(F)cc1)Nc1ccc(Cl)cn1 | inconclusive: 20.6 µM [cytotoxic, single point] | –
8 | O=C(NCCC(c1ccccc1)c1ccccc1)c1cccs1 | – | inactive: -14.5%
9 | CC(C)(Oc1ccc(Cl)cc1)C(=O)Nc1nc2ccc(S(C)(=O)=O)cc2s1 | – | inactive: -6.2%
10 | Cn1c(=O)oc2cc(S(=O)(=O)N3CCC(C(=O)NCc4cccs4)CC3)ccc21 | inconclusive: 29.1 µM [rising, single point] | –
11 | COc1cc(C#Cc2c(-c3cncn3C)n(C)c3ccc(-c4cnc(N5CCOCC5)nc4)cc23)cc(OC)c1 | – | inactive: 0%
12 | CSc1cc(-c2ccccc2)n(C)c(=O)c1C#N | inconclusive: 16.4 µM [cytotoxic, single point] | –
13 | COC(=O)C1=C[C@@H](C(=O)OC)[C@@H]2C3=C(C(=O)C2(C)C)[C@H](c2ccccc2)[C@@H]2C(=O)N(C)C(=O)[C@@H]2[C@@H]3C1 | inconclusive: 1.3 µM [cytotoxic, full curve] | –
14 | CN1/C(=N\O)c2cccc3cccc1c23 | inconclusive: 29.1 µM [cytotoxic, single point] | –
15 | Cc1ccc(-n2c(SCC(=O)NCc3ccco3)nnc2-c2cccnc2)c(C)c1 | active: 20.6 µM | –
16 | CCc1ccc(CNC(=O)C2Cc3cc(S(=O)(=O)N4CCCC4)ccc3N2C(C)=O)cc1 (configuration not stated) | – | inactive: 2.84%
17 | COc1ccc(Cl)cc1NC(=O)NCC1CCN(Cc2ccccc2F)CC1 | inconclusive: 16.4 µM [cytotoxic, partial curve, poor fit] | –
18 | Cc1ccc(SC[C@H](Cc2ccccc2)N2CC[C@@H](C)CCC2=O)cc1 | inconclusive: 10.3 µM [cytotoxic, partial curve] | –
19 | COc1cccc(CN2C[C@]34C=C[C@@H](C[C@@H]3S2(=O)=O)O4)c1 | inconclusive: 29.1 µM [rising, single point] | –
20 | C=CCn1c(SCC(=O)Nc2ccccc2C)nc2sc(C)c(C)c2c1=O | inconclusive: 8.2 µM [cytotoxic, partial curve, poor fit] | –
21 | CC(=O)c1sc(-c2ccccc2)cc1N | inconclusive: 29.1 µM [cytotoxic, single point] | –
22 | COc1ccccc1N1CCN(CC(=O)NC(=O)NCc2ccccc2)CC1 | inconclusive: 14.6 µM [cytotoxic, partial curve] | –
23 | O=C(CSc1nc(=O)n(CCN2CCOCC2)c2c1CCCC2)Nc1ccccc1Cl | inconclusive: 32.6 µM [cytotoxic, single point] | –

A different layout for part of the listing above.
Row,Compound,Potency,"activity change, negative = cytotoxicity"
3,Cc1cc(C)n(-c2nc(NCCN(C)C)c3c4c(sc3n2)COC(C)(C)C4)n1,–,inactive: -1.74%
19,COc1cccc(CN2C[C@]34C=C[C@@H](C[C@@H]3S2(=O)=O)O4)c1,"inconclusive: 29.1 µM [rising, single point]",–

The list continues:

Row | Compound | Potency | activity change, negative = cytotoxicity
24 | COc1ccc(CC(=O)Nc2ccc(-c3cn4ccc(C)cc4n3)cc2)cc1 | inconclusive: 14.6 µM [cytotoxic, partial curve, poor fit] | –
25 | COC(=O)c1ccc2c(=O)n(CCN3CCOCC3)c(SCC(=O)C(C)(C)C)nc2c1 | active: 10.3 µM | –
26 | CCOc1ccc(CN2C(=O)c3ccccc3C2=O)cc1C(=O)NC1CC(C)(C)NC(C)(C)C1 | inconclusive: 11.6 µM [rising, partial curve] | –
27 | CCCCCCNC(=O)O[C@H]1Cn2c(=O)n(CCCCCC)c(=O)n2[C@@H]2CN(S(=O)(=O)c3ccc(C)cc3)C[C@]12O | inconclusive: 29.1 µM [cytotoxic, single point] | –
28 | O=C(NNC(=O)c1ccc2ccccc2n1)c1ccc(O)cc1 | inconclusive: 10.3 µM [cytotoxic, partial curve, poor fit] | –
29 | NC1=CC(=O)C(=O)c2ccccc21 | inconclusive: 29.1 µM [cytotoxic, single point] | –
30 | CC(Oc1cc(-c2ccccc2)cc2ccccc12)C(=O)N1CCOCC1 (configuration not stated) | active: 6.51 µM | –
31 | O=C(N1CCCCC1)N1CCN(c2ccc(Cl)cc2)CC1 | inconclusive: 32.6 µM [cytotoxic, single point] | –
32 | CN(C)c1ccc(C=Cc2ccnc3c(O)cccc23)cc1 | inconclusive: 0.411 µM [cytotoxic, full curve, poor fit] | –
33 | COCCNC(=O)CSc1nc(-c2ccccc2C)nc2c1c(=O)n(C)c(=O)n2C | – | inactive: 0%
34 | Cc1cn(C2OC(COC(=O)c3ccccc3)C(O)C2Cl)c(=O)[nH]c1=O (configuration not stated) | inconclusive: 25.9 µM [rising, partial curve, poor fit] | –
35 | CC(C)C(NS(=O)(=O)c1ccc2c(c1)oc(=O)n2C)C(=O)NCCc1ccc(Cl)cc1 (configuration not stated) | – | inactive: 2.79%
36 | CCOc1ccc(Nc2c(S(=O)(=O)c3ccccc3)cnc3ccccc23)cc1 | inconclusive: 29.1 µM [cytotoxic, single point] | –
37 | Cc1ccc(NC(=O)Cn2c(=O)oc3cc(S(=O)(=O)N4CCCCCC4)ccc32)cc1Cl | – | inactive: 1.56%
38 | CC(=O)/C(N=Nc1ccc(C(=O)O)cc1[N+](=O)[O-])=C(\C)O | inconclusive: 20.6 µM [cytotoxic, partial curve] | –
39 | CCCNC(=S)Nc1ccc(Oc2ccccc2)cc1 | active: 18.4 µM | –
40 | COc1ccc(OC)c(-c2cc(C(=O)Nc3ccccc3C(N)=O)c3ccccc3n2)c1 | inconclusive: 16.4 µM [cytotoxic, partial curve] | –
41 | Cc1cc(OC(=O)C(C)(C)C)c([N+](=O)[O-])c(=O)[nH]1 | – | inactive: -3.95%
42 | O=C(NCc1ccco1)C(=O)c1c[nH]c2ccccc12 | – | inconclusive: -37.2% [cytotoxic]
43 | CN(Cc1ccco1)S(=O)(=O)c1nnc(NC(=O)c2cccc(Cl)c2)s1 | inconclusive: 29.1 µM [rising, single point] | –
44 | Nc1cc(S(=O)(=O)N2CCCCC2)ccc1Oc1ccccc1 | inconclusive: 16.4 µM [cytotoxic, partial curve] | –
45 | COc1cc(C2c3cc4c(cc3C(O)C3COCC23)OCO4)cc(OC)c1OC (configuration not stated) | inconclusive: 18.4 µM [cytotoxic, single point] | –
46 | Cc1csc(NC(=O)C2=NN(c3ccccc3)C(=O)CC2)n1 | – | inactive: 18.2%

Part of the list above, as labelled records:
O=C(N1CCCCC1)N1CCN(c2ccc(Cl)cc2)CC1
  Potency: inconclusive: 32.6 µM [cytotoxic, single point]
CN(C)c1ccc(C=Cc2ccnc3c(O)cccc23)cc1
  Potency: inconclusive: 0.411 µM [cytotoxic, full curve, poor fit]

(cont.)

Row | Compound | Potency | activity change, negative = cytotoxicity
47 | COC(=O)CNC(=O)CSc1nnc(-c2ccc(OC)cc2)n1CC(C)C | inconclusive: 18.4 µM [cytotoxic, partial curve] | –
48 | Cc1ccc(NC(=O)c2c(C)oc3ccc(O)c(CN4CCCCC4)c23)c(C)c1 | – | inconclusive: -33.6%
49 | Clc1nc(NCc2cccs2)c2[nH]cnc2n1 | inactive | –
50 | O=C(Nc1nc(-c2cc(Cl)sc2Cl)cs1)c1ccc(Br)s1 | inconclusive: 20.6 µM [cytotoxic, single point] | –
51 | O=c1[nH][nH]c2c1[C@H](c1ccc(F)cc1)O[C@H](C1CCCCC1)C2 | – | inactive: 0%
52 | CCOc1cccc(C2C=C(c3ccc4c(c3)OCO4)NC(c3ccc(Cl)cc3)N2)c1O (configuration not stated) | – | inactive: -13.2%
53 | CCS(=O)(=O)N1CCN(C(=O)C(c2ccccc2)c2ccccc2)CC1 | inconclusive: 2.51 µM [cytotoxic, partial curve, poor fit] | –
54 | Cc1ccc(/C=N/n2cnc3sc4c(c3c2=O)CCCC4)o1 | inconclusive: 16.4 µM [cytotoxic, partial curve, poor fit] | –
55 | CCOc1cc(/C=N/Nc2nc(-c3cccs3)c(NC(C)=O)s2)ccc1O | inconclusive: 29.1 µM [rising, single point] | –
56 | CCn1c2ccccc2c2cc(NC(=O)CSc3nnnn3-c3ccccc3)ccc21 | – | inactive: 1.9%
57 | CCCCn1nnnc1NCc1cc(OC)c(OC)cc1OC | active: 25.9 µM | –
58 | COC(=O)C[C@H]1c2cc(F)ccc2S(=O)(=O)N1Cc1ccccc1 | inconclusive: 25.9 µM [cytotoxic, partial curve, poor fit] | –
59 | CC1=C(C)CS(=O)N(S(=O)(=O)c2ccc(Cl)cc2)C1 (configuration not stated) | inconclusive: 20.6 µM [cytotoxic, single point] | –
60 | Cc1cc(Cl)ccc1OCCCC(=O)N1CCN(S(=O)(=O)c2ccccc2)CC1 | inconclusive: 14.6 µM [cytotoxic, partial curve] | –
61 | O=C(/C=C/c1ccco1)NC(=S)Nc1cccc(-c2nc3ccccc3s2)c1 | active: 6.51 µM | –
62 | COc1ccc(NC(=O)N(C)C[C@H]2Oc3c(NC(=O)NC(C)C)cccc3C(=O)N([C@H](C)CO)C[C@@H]2C)cc1 | inconclusive: 29.1 µM [rising, single point] | –
63 | O=C(c1ccc([N+](=O)[O-])cc1[N+](=O)[O-])N1CCN(C(=O)C2CCCO2)CC1 (configuration not stated) | inconclusive: 20.6 µM [rising, partial curve, poor fit] | –
64 | CC(NC(=O)C1CCCN(S(=O)(=O)c2cccc3nonc23)C1)c1ccccc1 (configuration not stated) | inconclusive: 14.6 µM [cytotoxic, partial curve] | –
65 | Cc1[nH]n2c(=O)cc(C(C)(C)C)nc2c1-c1ccccc1 | inconclusive: 8.2 µM [cytotoxic, partial curve, poor fit] | –
66 | COCCNc1c2c(nc3c(-c4ccccc4)c(C)nn13)CCC2 | inconclusive: 10.3 µM [cytotoxic, partial curve] | –
67 | O=C(c1cccs1)N1CCCc2cc(NS(=O)(=O)c3ccc(F)cc3F)ccc21 | – | inactive: -12.5%
